## Results of single-concentration screens

The filed quantity is “Percent Effect” (%).
The record does not define 0% and 100%; most values in the screen are far below 50% and negative numbers occur (in some assays of this library far below -100).
Compounds were drawn at random from those tested, without regard to their results.
Two or more numbers in one place are separate tests of the same structure; such repeats can differ widely.
A dash means the value is not listed here; it may have been measured.

Mtb cholesterol medium: 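Whole-cell growth test on Mycobacterium tuberculosis, read after 4 days in a medium based on cholesterol and the lipid DPPC; the read-out is not stated. Compounds at 50 µM. The record gives no direction; compounds that gave an IC50 in retests scored well above the rest, so higher reads as more growth inhibition. About 69,000 compounds were tested under these conditions; 0.54% (about 370) showed 50% or more at least once.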
Mtb glucose medium: 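Whole-cell growth test on Mycobacterium tuberculosis, read after 3 days in glucose-containing 7H9 medium; the read-out is not stated. Compounds at 50 µM. Higher reads as more growth inhibition (inferred: compounds with an IC50 in retests scored well above the rest). About 69,000 compounds were tested under these conditions; 1.1% (about 760) showed 50% or more at least once.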

| compound | Mtb cholesterol medium | Mtb glucose medium |
|---|---|---|
| `Cn1cc(C[C@H]2[C@H](O)CCN2Cc2ccc(F)cc2)cn1.O=C(O)C(F)(F)F` | -11.09% & -18.16% | -31.43% |
| `CN1CCN(Cc2n[nH]c(=O)n2CC2CCCCC2)CC1` | -10.8% | 1.075% |
| `Cc1occc1C(=O)Nc1ccnc(OC2CCOC2)c1` (centres unmarked) | 8.124% | 10.32% & 9.866% |
| `F[C@@H]1CN(Cc2ccccc2)C[C@@H]1OCc1nc2ccccc2[nH]1` | 0.3753% | 7.666% & 4.407% |
| `Cc1cccc(CNC2CCN(CCc3ccncc3)CC2)c1C` | 18.77% | 3.983% |
| `COc1cc(N2C[C@@H](C)[C@](O)(C3CC3)C2)nc(N)n1` | -40.05% | 3.876% |
| `O=C1OCCC1N1CCN(c2cnccn2)CC1` (centres unmarked) | -10.03% | -4.356% & -19.79% |
| `Cc1ccc(N2CCCC(NCc3ccsc3)C2)nn1` (centres unmarked) | -16.4% | 14.09% |
| `CCn1ncc2c1C(COC)CN(Cc1nccs1)C2` (centres unmarked) | -57.16% | -78.81% |
| `O=C(Nc1ccc(-c2ccccc2)cn1)C1CCCN1C(=O)C1CC1` (centres unmarked) | 21.47% | 11.39% |
| `O=C(C1CC1)N1CCc2c(ncnc2N2CCN3CCCC3C2)C1` (centres unmarked) | 3.012% | 1.259% & 11.74% |
| `COCc1nn(C)c2c1CCN(Cc1cnn(C)c1)C2.O=C(O)C(F)(F)F` | 1.751% | -21.3% |
| `O=C(O)C(F)(F)F.O=C(O)C(F)(F)F.[H][C@@]12COC[C@@H](CC(=O)NCc3cccnc3)[C@]1([H])CN(C1CCCC1)C2` | -2.804% | 4.664% |
| `CCn1cncc1CNc1ccc(-c2nc(CC(C)C)no2)cn1` | 38.67% | 43.12% & 36.31% |
| `O=C(NC[C@@H]1CCCO1)c1cc(Br)cnc1N1CCCCC1` | -16.54% | -19.13% |
| `CCn1nc(C)c(NC(=O)CN(C)C(C)c2nccs2)c1C` (centres unmarked) | -8.015% | 17.62% |
| `CC(CNC(=O)Nc1ccc(F)cc1Br)N1CCOCC1` (centres unmarked) | -42.27% | -23.46% |
| `CCCNC(=O)NC(C)c1ccccn1` (centres unmarked) | 15.42% | 19.1% & 14.5% |
| `Cc1ncncc1C(=O)Nc1cnn(CC(=O)NC2CCCC2)c1` | 2.467% | 10.74% |
| `O=C(O)C(F)(F)F.O=S(=O)(NC1CCC12CCN(CC1CCOCC1)CC2)c1ccccc1` (centres unmarked) | 19.68% | 9.105% & -5.196% |
| `CN(C)c1nc2c(c(=O)[nH]1)CCN(C(=O)c1cccc3nccnc13)C2` | -31.84% | -44.47% |
| `O=C(O)c1ccccc1-c1ccc(CN2CC(c3ccncn3)C2)o1` | -1.812% & -3.035% | -14.92% |
| `COc1ccc(Cl)cc1C(=O)N1CCCC(n2nc(C)nc2C)C1` (centres unmarked) | 9.883% | -11.4% |
| `CN(C)Cc1csc(-c2nccn2Cc2ccc(C(=O)O)cc2)c1` | 22.73% | 7.497% |
| `Cc1cc(N2CCC(n3cc(CCCO)nn3)CC2)ccn1` | -2.7% | -12.58% & -2.437% |
| `O=C(O)C(F)(F)F.O=C(O)C(F)(F)F.[H][C@@]12COC[C@]1([H])[C@@H](OCCN(C)C)CN2Cc1cccc(C#N)c1` | 24.42% | 9.764% |
| `CCCN1CCN(Cc2nccn2CC)C(C)C1` (centres unmarked) | -44.23% & 5.008% | -48.13% |
| `Cc1cc(=O)n2ncnc2n1CC(O)c1cc(Cl)ccc1Cl` (centres unmarked) | 10.68% | 29.33% |
| `CCS(=O)(=O)N1Cc2cncn2CC(C(=O)NCC2CC2)C1` (centres unmarked) | -29.5% | -14.59% |
| `CC1(C)CNC(=O)c2nc(CCN3CCOCC3)[nH]c2C1` | 12.6% | 9.418% |
| `CC(C)c1cc(C(=O)N(c2ccc(F)cn2)C2CCOCC2)on1` | 11.73% | 10.05% |
| `O=C(COc1coc(CN2CCCC2)cc1=O)Nc1ccc(Cl)c(Cl)c1` | -5.237% | 27.25% |
| `Cc1c(C)n2c(SCC(=O)N3CCCC3)nnc2[nH]c1=O` | -30.57% | -42.53% & -6.924% |
| `C[C@H]1CN2C[C@H](O)CC2CN1Cc1ccc2nccnc2c1.Cl` (some centres unmarked) | 5.513% | 3.858% |
| `CCSC(C)c1nc(-c2ccc(C)nn2)no1` (centres unmarked) | -6.716% & 1.139% | -5.153% |
| `O=C(NC1CCCN(CCCc2ccccc2)C1)C1=CCCCC1` (centres unmarked) | 19.32% | 30.89% |
| `CC(=O)N1CCCN(C(=O)NCCc2ccc(Cl)s2)CC1` | -7.443% | 20.11% |
| `COCCOc1ccc(NC(=O)C2CC(=O)N(C3CC3)C2)cn1` (centres unmarked) | - | -66.56% |
| `FC(F)(F)c1cccc(OC2CCN(Cc3ncc[nH]3)CC2)c1` | 11.91% | 24.1% |
| `CN(CC1Cc2ccccc2CN1C)C(=O)Cc1cccs1` (centres unmarked) | -18.16% | 12.54% |
| `COc1cc2[nH]c(=O)c(CN3CCC[C@H]3CO)cc2c(OC)c1OC` | -31.24% | 6.686% |

The first 4 entries again:

| compound | Mtb cholesterol medium | Mtb glucose medium |
|---|---|---|
| `Cn1cc(C[C@H]2[C@H](O)CCN2Cc2ccc(F)cc2)cn1.O=C(O)C(F)(F)F` | -11.09% & -18.16% | -31.43% |
| `CN1CCN(Cc2n[nH]c(=O)n2CC2CCCCC2)CC1` | -10.8% | 1.075% |
| `Cc1occc1C(=O)Nc1ccnc(OC2CCOC2)c1` (centres unmarked) | 8.124% | 10.32% & 9.866% |
| `F[C@@H]1CN(Cc2ccccc2)C[C@@H]1OCc1nc2ccccc2[nH]1` | 0.3753% | 7.666% & 4.407% |

From ChEMBL document CHEMBL3988442, “University of Dundee, Small-Polar-MMV Screening Library” (2021).